Patent US20160075653A1, “NEMATICIDAL N-(PHENYLCYCLOALKYL)CARBOXAMIDES AND N-(PHENYLCYCLOALKYL)THIOCARBOXAMIDES” (BAYER CROPSCIENCE AKTIENGESELLSCHAFT, priority 2013, published 2016)
Some entries share one result that the patent states for a list of compounds.

Experiments:
Haemonchus contortus = Haemonchus contortus test (HAEMCO), larval mortality; format: in vivo; settings: application rate 20 ppm, after 5 days
Experimental: Haemonchus contortus—Test (HAEMCO) Solvent: dimethyl sulfoxide
(§1) To produce a suitable preparation of active compound, 10 mg of active compound are dissolved in 0.5 ml solvent, and the concentrate is diluted with “Ringer's solution” to the desired concentration.
Approximately 40 larvae of the red stomach worm (Haemonchus contortus) are transferred into a test tube containing compound solution.
After 5 days percentage of larval mortality are recorded. 100% efficacy means all larvae are killed, 0% efficacy means no larvae are killed.

Cooperia curticei = Cooperia curticei test (COOPCU), larval mortality; format: in vivo; settings: application rate 20 ppm, after 5 days
Experimental: Cooneria curtice—Test (COOPCU) Solvent: dimethyl sulfoxide
as §1
Approximately 40 nematode larvae (Cooperia curticei) are transferred into a test tube containing the compound solution.
After 5 days percentage of larval mortality is recorded. 100% efficacy means all larvae are killed; 0% efficacy means no larvae are killed.

Row | Compound | activity (larval mortality) (Haemonchus contortus) [%] | activity (larval mortality) (Cooperia curticei) [%]
1 | O=C(NC1CCC1c1ccccc1C(F)(F)F)c1ccccc1C(F)(F)F (stereo not drawn) [Compound 496] | 100 | –
2 | O=C(N[C@@H]1CC[C@@H]1c1cccc(F)c1C(F)(F)F)c1ccccc1 (relative stereo) [Compound 592] | 80 | 100
3 | O=C(N[C@@H]1CC[C@@H]1c1ccccc1Cl)c1ccccc1[N+](=O)[O-] (relative stereo) [Compound 538] | 80 | –
4 | O=C(N[C@@H]1CC[C@H]1c1ccc(F)cc1C(F)(F)F)c1ccccc1C(F)(F)F (relative stereo) [Compound 494] | 90 | 80
5 | O=C(NC1CCC1c1ccccc1C(F)(F)F)c1ccccc1Br (stereo not drawn) [Compound 216] | 100 | 80
6 | O=C(N[C@@H]1CC[C@@H]1c1ccccc1Cl)c1sccc1I (relative stereo) [Compound 546] | 100 | 100
7 | O=C(N[C@@H]1CC[C@@H]1c1cc(F)ccc1C(F)(F)F)c1ccccc1Cl (relative stereo) [Compound 528] | 90 | 80
8 | O=C(N[C@@H]1CC[C@@H]1c1cc(F)ccc1C(F)(F)F)c1ccccc1I (relative stereo) [Compound 541] | 100 | 100
9 | O=C(NC1CCC1c1cc(F)ccc1C(F)(F)F)c1ncccc1Cl (stereo not drawn) [Compound 518] | 100 | 100
10 | O=C(N[C@@H]1CC[C@H]1c1ccccc1Cl)c1sccc1I (relative stereo) [Compound 544] | 90 | –
11 | O=C(N[C@@H]1CC[C@@H]1c1ccccc1Cl)c1ccccc1Br (relative stereo) [Compound 253] | – | 80
12 | O=C(N[C@@H]1CC[C@@H]1c1ccc(F)cc1C(F)(F)F)c1cccnc1Cl (relative stereo) [Compound 515] | 100 | 100
13 | O=C(N[C@@H]1C[C@@H]1c1ccc(Cl)cc1Cl)c1c(F)cccc1F (relative stereo) [Compound 581] | 100 | 100
14 | O=C(NC1CCC1c1ccccc1C(F)(F)F)c1c(F)cccc1F (stereo not drawn) [Compound 430] | 80 | 90
15 | O=C(N[C@@H]1CC[C@@H]1c1c(F)cccc1C(F)(F)F)c1c(F)cccc1F (relative stereo) [Compound 564] | – | 100
16 | O=C(NC1CCC1c1ccc(Cl)cc1Cl)c1ccccc1C(F)(F)F (stereo not drawn) [Compound 476] | 100 | 100
17 | O=C(N[C@@H]1CC[C@@H]1c1ccc(F)cc1C(F)(F)F)c1cccnc1C(F)(F)F (relative stereo) [Compound 489] | 100 | 100
18 | O=C(NC1CCC1c1ccccc1C(F)(F)F)c1ncccc1Cl (stereo not drawn) [Compound 215] | 100 | 100
19 | O=C(N[C@@H]1C[C@@H]1c1ccc(Cl)cc1Cl)c1ccccc1Br (relative stereo) [Compound 579] | 100 | –
20 | O=C(N[C@@H]1CC[C@@H]1c1ccccc1Cl)c1ccccc1I (relative stereo) [Compound 250] | – | 90

Row | Compound | activity (larval mortality) (Haemonchus contortus) [%] | activity (larval mortality) (Cooperia curticei) [%]
21 | O=C(NC1CCC1c1ccc(F)cc1C(F)(F)F)c1ncccc1Cl (stereo not drawn) [Compound 478] | 80 | –
22 | O=C(N[C@@H]1CC[C@@H]1c1cccc(F)c1C(F)(F)F)c1ccccc1Cl (relative stereo) [Compound 601] | 90 | 100
23 | O=C(N[C@@H]1CC[C@H]1c1ccc(F)cc1C(F)(F)F)c1ccccc1I (relative stereo) [Compound 502] | 80 | 80
24 | O=C(NC1CC1c1ccc(Cl)cc1Cl)c1cccnc1Cl (stereo not drawn) [Compound 425] | 90 | –
25 | O=C(N[C@@H]1CC[C@H]1c1ccc(F)cc1C(F)(F)F)c1ccccc1Br (relative stereo) [Compound 501] | 100 | –
26 | O=C(NC1CCCC1c1c(F)cccc1F)c1ccccc1C(F)(F)F (stereo not drawn) [Compound 323] | 80 | 90
27 | O=C(N[C@@H]1CC[C@@H]1c1c(F)cccc1C(F)(F)F)c1ncc(C(F)(F)F)cc1Cl (relative stereo) [Compound 543] | 80 | –
28 | O=C(N[C@@H]1CC[C@@H]1c1ccc(F)cc1C(F)(F)F)c1ccccc1 (relative stereo) [Compound 505] | 80 | 100
29 | O=C(NC1CC1c1ccc(Cl)cc1)c1ccsc1I (stereo not drawn) [Compound 460] | 100 | 90
30 | O=C(N[C@@H]1CC[C@@H]1c1cc(F)ccc1C(F)(F)F)c1nccnc1Cl (relative stereo) [Compound 559] | – | 80
31 | O=C(NC1CC1c1ccc(Cl)cc1)c1cccnc1C(F)F (stereo not drawn) [Compound 465] | 80 | –
32 | O=C(NC1CCC1c1ccc(F)cc1C(F)(F)F)c1sccc1I (stereo not drawn) [Compound 519] | 100 | 100
33 | O=C(N[C@@H]1CC[C@@H]1c1cccc(F)c1C(F)(F)F)c1ncccc1Cl (relative stereo) [Compound 617] | 100 | 100
34 | O=C(N[C@@H]1CC[C@@H]1c1cccc(F)c1C(F)(F)F)c1ccccc1Br (relative stereo) [Compound 654] | 90 | 100
35 | O=C(N[C@@H]1CC[C@@H]1c1c(F)cccc1C(F)(F)F)c1nccnc1Cl (relative stereo) [Compound 576] | 80 | 100
36 | O=C(NC1CCC1c1ccc(Cl)cc1Cl)c1c(F)cccc1F (stereo not drawn) [Compound 473] | 100 | 100
37 | O=C(N[C@@H]1CC[C@@H]1c1cccc(F)c1C(F)(F)F)c1c(F)cccc1F (relative stereo) [Compound 639] | 80 | 100
38 | O=C(N[C@@H]1CC[C@@H]1c1ccc(Cl)cc1Cl)c1ccccc1Cl (relative stereo) [Compound 261] | 100 | 100
39 | O=C(NC1CCC1c1ccccc1C(F)(F)F)c1cccnc1C(F)(F)F (stereo not drawn) [Compound 235] | – | 80
40 | O=C(N[C@@H]1CC[C@@H]1c1ccc(F)cc1C(F)(F)F)c1ccccc1[N+](=O)[O-] (relative stereo) [Compound 522] | 100 | 100

Row | Compound | activity (larval mortality) (Haemonchus contortus) [%] | activity (larval mortality) (Cooperia curticei) [%]
41 | O=C(N[C@@H]1CC[C@@H]1c1c(F)cccc1C(F)(F)F)c1ccccc1Cl (relative stereo) [Compound 553] | 100 | 100
42 | O=C(N[C@@H]1CCC[C@@H]1c1ccccc1F)c1ccc(I)s1 (relative stereo) [Compound 337] | 80 | –
43 | O=C(NC1CCC1c1c(F)cccc1F)c1ccccc1Br (stereo not drawn) [Compound 227] | 80 | 90
44 | O=C(N[C@@H]1CC[C@@H]1c1ccc(Cl)cc1Cl)c1ncccc1Cl (relative stereo) [Compound 260] | 100 | 100
45 | O=C(NC1CC1c1ccc(Cl)cc1)c1cccnc1Cl (stereo not drawn) [Compound 274] | 80 | –
46 | O=C(N[C@@H]1CC[C@H]1c1cccc(F)c1C(F)(F)F)c1ccccc1Cl (relative stereo) [Compound 598] | 90 | –
47 | O=C(NC1CCC1c1c(F)cccc1F)c1ccccc1I (stereo not drawn) [Compound 440] | 80 | 80
48 | O=C(N[C@@H]1CC[C@@H]1c1ccc(F)cc1C(F)(F)F)c1ccccc1Br (relative stereo) [Compound 491] | 100 | 100
49 | O=C(N[C@@H]1C[C@@H]1c1ccc(Cl)cc1Cl)c1sccc1I (relative stereo) [Compound 582] | 100 | 100
50 | O=C(N[C@@H]1CC[C@@H]1c1ccccc1Cl)c1ccccc1C(F)(F)F (relative stereo) [Compound 251] | – | 100
51 | O=C(NC1CCC1c1ccccc1C(F)(F)F)c1ccccc1C(F)(F)F (stereo not drawn) [Compound 434] | – | 100
52 | O=C(NC1CC1c1ccc(Cl)cc1)c1sccc1Cl (stereo not drawn) [Compound 203] | 80 | –
53 | O=C(N[C@@H]1C[C@@H]1c1ccc(Cl)cc1Cl)c1ccccc1Cl (relative stereo) [Compound 580] | 100 | –
54 | O=C(NC1CCC1c1ccccc1C(F)(F)F)c1ccccc1 (stereo not drawn) [Compound 426] | – | 80
55 | O=C(N[C@@H]1CC[C@@H]1c1c(F)cccc1F)c1ncccc1Cl (relative stereo) [Compound 438] | 80 | –
56 | O=C(N[C@@H]1CC[C@@H]1c1cc(F)ccc1C(F)(F)F)c1c(F)cccc1F (relative stereo) [Compound 549] | – | 90
57 | O=C(N[C@@H]1CC[C@@H]1c1cc(F)ccc1C(F)(F)F)c1cccnc1C(F)(F)F (relative stereo) [Compound 572] | 90 | –
58 | O=C(N[C@@H]1CC[C@@H]1c1cc(F)ccc1C(F)(F)F)c1ccccc1[N+](=O)[O-] (relative stereo) [Compound 540] | 100 | –
